# The list shows a part of the results. The main result of the screen is listed elsewhere. These columns were measured beside it and carry no call.
# Columns and labels:
# [1] = growth inhibition of wild-type GFP E. coli, dose response, h38 mutant RFP, cherry-pick (AID 977622); details: E. coli mixed culture, 24 h, total growth OD600 at 50 uM
# [2] = tested on: E. coli h38 humanized mutant ribosome RFP fluorescence, mixed culture, 24 h; experiment: as above; details: h38 mutant RFP at 50 uM
structure (smiles),measurement,setting,value
O=C(Nc1cccc(-c2cn3ccccc3n2)c1)c1ccccc1,activity change,[1],-29.1%
same,activity change,[2],-35.9%
CC(=O)Nc1ccc(-c2ccnc3c2CC(C)(C(=O)Nc2ccc4c(c2)OCO4)O3)cc1 (stereo not given),activity change,[1],-26.6%
Fc1ccc(-c2nnc(-c3ccc4ccccc4c3)o2)cc1,activity change,[1],-1.23%
same,activity change,[2],-7.27%
O=[N+]([O-])c1ccc2c(c1)S(=O)c1ccccc1-2 (stereo not given),activity change,[1],-21%
same,activity change,[2],20.9%
COc1cccc(NC(=O)C(c2ccccc2)N2CCN(c3ccccn3)CC2)c1 (stereo not given),activity change,[1],-9.98%
[O-][n+]1ccccc1/C=C/c1ccccc1,activity change,[1],-5.49%
same,activity change,[2],-13%
COc1ccc(Cc2nnc(Nc3ccc(C)cc3)o2)cc1OC,activity change,[1],-9.42%
same,activity change,[2],35.4%
O=C(Nc1nc(-c2ccc3ccccc3c2)cs1)C1CCN(S(=O)(=O)c2cccs2)CC1,activity change,[1],4.53%
same,activity change,[2],34.8%
O=C(Nc1ccc(F)c(Cl)c1)C1CC2CCC1C2 (stereo not given),activity change,[1],-58.8%
same,activity change,[2],-2.09%
O=C(Nc1ccccc1)N1CCCCN2[C@@H](CO)[C@H](c3ccc(Br)cc3)[C@@H]2C1,activity change,[1],-2.49%
same,activity change,[2],-0.808%
C/C=C/c1ccc2c(c1)[C@@H]1[C@@H](CCN1S(=O)(=O)c1ccccc1OC)[C@H](CO)N2C,activity change,[1],-49.2%
same,activity change,[2],-37.9%
O=C(CCNC(=O)c1ccco1)Nc1cccc(Br)c1,activity change,[1],-27.7%
Fc1cccc(CCN2C(=S)NC[C@@H]2CC2CCCCC2)c1,activity change,[2],-21.7%
CCOc1ccc(OCC)c(NC(=O)CSc2nc3c(c(=O)n(C)c(=O)n3C)n2C(C)C)c1,activity change,[1],-46.3%
same,activity change,[2],-2.93%
O=C(O)CSc1nnc(-c2ccc(Cl)cc2Cl)n1-c1ccc(Br)cc1,activity change,[1],-32.7%
same,activity change,[2],-24.8%
C=CCN(CC(O)c1cccc([N+](=O)[O-])c1)C(C)CCc1ccccc1 (stereo not given),activity change,[1],-83.4%
same,activity change,[2],7.02%
Cc1ccc(NC(=O)c2ccc([N+](=O)[O-])o2)c(C)c1,activity change,[1],-11.1%
same,activity change,[2],-22.8%
CN(CC(=O)Nc1ccc(S(=O)(=O)N2CCCC2)cc1)CC(=O)Nc1ccc(F)c(F)c1F,activity change,[2],-0.652%
COc1ccc(Cl)cc1C(=O)OCC(=O)c1ccc[nH]1,activity change,[1],-8.22%
same,activity change,[2],22.3%
Nc1ncncc1-c1ccc(Cl)cc1,activity change,[1],-23.8%
same,activity change,[2],-17.5%
COC(=O)c1c(C)oc(C)c1S(=O)(=O)NC(c1ccccc1)c1ccccc1,activity change,[1],-71.9%
same,activity change,[2],41.2%
COc1ccc(NC(=O)Nc2cccc3c2O[C@@H](CN(C)S(=O)(=O)c2ccc(Cl)cc2)[C@@H](C)CN([C@@H](C)CO)C3=O)cc1,activity change,[1],-53.5%
same,activity change,[2],1.47%
Clc1ccc(-c2nc3ccc(Br)cn3c2Cc2ccsc2)cc1,activity change,[1],-63.1%
same,activity change,[2],44.8%
O=C(Nc1cccc(Cl)c1)N1C[C@@H]2[C@H](c3ccccc31)[C@@H](CO)N2CC1CCCCC1,activity change,[1],-49.3%
same,activity change,[2],-10.9%
CN(C)S(=O)(=O)c1cccc(NC(=O)c2ccc3c(c2)S(=O)(=O)N=C2CCCCCN23)c1,activity change,[1],-1.92%
COc1cc(C(=O)NCCc2c[nH]c3ccccc23)ccc1OCc1c(C)noc1C,activity change,[1],-30.9%
same,activity change,[2],-28.6%
CN(C)CC(=O)N[C@@H]1CC[C@@H](CCNC(=O)Nc2ccc(Cl)cc2)O[C@H]1CO,activity change,[1],-0.267%
same,activity change,[2],-4.53%
Cc1n[nH]c(C)c1S(=O)(=O)N1CCCC(C(=O)Nc2ccc(Br)cc2)C1 (stereo not given),activity change,[1],-19.3%
COc1ccc(C#Cc2ccc([C@@H]3[C@H](CO)N4CCCCN(C(=O)Nc5cccc(F)c5)C[C@@H]34)cc2)cc1,activity change,[1],-1.06%
same,activity change,[2],4.98%
CN(c1ccccc1)S(=O)(=O)c1cccc(C(=O)OCC(=O)NCc2ccco2)c1,activity change,[1],-37.5%
COc1cc(OC)nc(Oc2ccccc2C(=O)Oc2ccccc2Cl)n1,activity change,[1],-50.2%
same,activity change,[2],-11.4%
COc1ccc(CNC(=O)c2sc3nc4c(c(C(F)(F)F)c3c2N)CCC4)cc1OC,activity change,[1],-26.9%
same,activity change,[2],-28.2%
COc1ccc(OC)c(-c2nn(-c3ccccc3)cc2C(=O)N2CCc3ccccc3C2)c1,activity change,[1],-9.25%
CN(C)c1cccc(C(=O)Nc2ccc3nc4n(c(=O)c3c2)CCCCC4)c1,activity change,[1],-54.8%
O=C(c1ccc(Cl)cc1)N1CCN(c2cccc3[nH]ccc23)CC1,activity change,[1],-36.9%
same,activity change,[2],8.92%
O=C(C[C@H]1CC[C@H]2[C@@H](COC[C@@H](O)CN2C(=O)Nc2ccc(Cl)cc2)O1)N1CCCCC1,activity change,[1],-82%
same,activity change,[2],-21.8%
CSc1ccccc1NC(=O)c1ccccc1N(Cc1ccccc1)S(C)(=O)=O,activity change,[1],-27.3%
same,activity change,[2],1.89%
O=C(COC(=O)c1ccccc1O)NCCC1=CCCCC1,activity change,[1],-6.59%
same,activity change,[2],7.23%
O=C(c1cc(S(=O)(=O)N2CCOCC2)ccc1Cl)N1CCc2ccccc2C1,activity change,[1],-18.8%
O=C(C[C@H]1CC[C@H]2[C@@H](COC[C@@H](O)CN2C(=O)Nc2cc(Cl)cc(Cl)c2)O1)N1CCOCC1,activity change,[1],-28.3%
same,activity change,[2],16.3%
Cc1ccc(CSCC(=O)Nc2ccccc2F)cc1,activity change,[1],-7.49%
same,activity change,[2],-11%
COc1ccccc1-c1noc2ncnc(Nc3ccccc3C)c12,activity change,[1],-3.5%
COc1ccc(-n2c(COc3cccc(C)c3)n[nH]c2=S)cc1,activity change,[2],21.9%
COC(=O)c1ccc2nc(-c3ccco3)c(Cc3ccc(C)cc3)n2c1,activity change,[1],-16.6%
Cc1cc(CNC(=O)COc2ccc(C)c(C)c2)c2ccccc2n1,activity change,[2],-0.731%
COC(=O)c1cc(S(=O)(=O)NCc2ccc3c(c2)OCO3)cn1C,activity change,[1],-22.1%
same,activity change,[2],-13.9%
CC(C)C1C(c2ccccc2)N(C)C(c2ccccc2)CC1(O)c1ccccc1 (stereo not given),activity change,[1],-81%
C[C@@H]1CCCCO[C@@H](CN(C)C)[C@@H](C)CN([C@@H](C)CO)C(=O)c2cc(NC(=O)Nc3cccc4ccccc34)ccc2O1,activity change,[1],-8.59%
same,activity change,[2],-3.02%
COCCNc1cc(-c2ccccc2)nc2cc(-c3cccc(F)c3)nn12,activity change,[1],13.6%
same,activity change,[2],-1.12%
Cc1ccc(Nc2cc(C(=O)NCCCN3CCOCC3)c3ccccc3n2)cc1C,activity change,[1],-11.1%
same,activity change,[2],19.2%
CCOC(=O)c1cc(-c2ccc(OC)cc2)n[nH]1,activity change,[1],-11.8%
same,activity change,[2],-18.4%
Cc1ccc(OCCn2c(=S)[nH]c3c(N)ncnc32)cc1,activity change,[1],-42.1%
O=C(Nc1ccccc1F)N1CCCCN2[C@@H](CO)[C@H](c3ccc(-c4cccnc4)cc3)[C@@H]2C1,activity change,[1],-0.477%
same,activity change,[2],-6.61%
Cc1ccc(C(=O)C2CCN(CC(=O)Nc3nc(C)cs3)CC2)cc1,activity change,[1],-57.1%
O=C(Cc1c(Cl)cccc1Cl)Nc1cccc(S(=O)(=O)N2CCOCC2)c1,activity change,[1],-35.5%
same,activity change,[2],9.07%
COc1ccccc1CCNC(=O)c1cccc(NC(=O)CC2SC(N3CCCCC3)=NC2=O)c1 (stereo not given),activity change,[1],-30.1%
same,activity change,[2],-6.88%
O=C(O)c1ccc2c(c1)N(Cc1ccccc1)C(=O)c1ccccc1S2,activity change,[1],-13.8%
same,activity change,[2],-3.99%
CC(C)n1c(C(=O)OCC(=O)NCc2ccc3c(c2)OCO3)cc2sccc21,activity change,[1],-62.9%
same,activity change,[2],-9.86%
Cc1cc2c(sc3c(C)ccc(C)c32)c(C)n1,activity change,[1],-55.6%
same,activity change,[2],-10.5%
Cc1ccc(Cl)cc1N1CCN(C(=O)c2ccc3nc[nH]c3c2)CC1,activity change,[1],-20.8%
Cc1ccc(-c2ccc3c(c2)O[C@@H](CN(C)Cc2cccc(C(=O)O)c2)[C@H](C)CN([C@@H](C)CO)S3(=O)=O)cc1,activity change,[1],-64.4%
same,activity change,[2],11.7%
CCOc1ccc(NS(=O)(=O)c2ccc(C(=O)N3CCN(c4ncccn4)CC3)cc2)cc1,activity change,[1],-32.2%
same,activity change,[2],3.35%
Cc1cccc(NC(=O)c2n[nH]c([N+](=O)[O-])c2Br)c1C,activity change,[1],-73.3%
same,activity change,[2],-41.2%
C[C@@H]1CCCCO[C@@H](CN(C)C(=O)c2ccccc2)[C@H](C)CN([C@@H](C)CO)C(=O)c2cc(NC(=O)Cc3ccccc3)ccc2O1,activity change,[1],2.71%
same,activity change,[2],27.8%
O=C(NCCc1ccc(Cl)cc1)c1ccc2nc[nH]c2c1,activity change,[1],-18.9%
same,activity change,[2],-7.05%
C[C@H](CO)N1C[C@H](C)[C@@H](CN(C)C)OCCCC[C@H](C)Oc2ccc(NC(=O)Nc3cccc4ccccc34)cc2C1=O,activity change,[1],-5.25%
same,activity change,[2],-6.39%
COc1cc(C(=O)Nc2nnc(S(=O)(=O)N3CCCCCC3)s2)cc(OC)c1OC,activity change,[1],-71%
same,activity change,[2],-5.65%
CC(=O)c1ccc(-c2cccc([C@H]3[C@@H]4C=CC[C@@H](C)[C@@H]4C(=O)N3Cc3ccccc3)c2)cc1,activity change,[1],2.97%
same,activity change,[2],15.8%
Cc1nc(Sc2ccc(Cl)cc2)c(C#N)c(C)c1[N+](=O)[O-],activity change,[1],-52.5%
same,activity change,[2],4.59%
CN(C)S(=O)(=O)c1cccc(C(=O)Nc2ccc3c(c2)CCC3)c1,activity change,[1],-25.3%
Cc1cc(NC(=O)c2sc(Nc3ccc(F)c(Cl)c3)nc2N)no1,activity change,[1],-19.1%
same,activity change,[2],209%
O=C1OCCC1Sc1nc2ccccc2c(=O)n1Cc1ccccc1 (stereo not given),activity change,[1],-39.4%
same,activity change,[2],-14.9%
Cc1ccc(OCc2nc(C#N)c(N3CCCCC3)o2)cc1,activity change,[1],-59.1%
same,activity change,[2],36.5%
Cc1ccc(NC(=O)c2ccc([N+](=O)[O-])o2)cc1S(=O)(=O)N1CCOCC1,activity change,[1],-21.5%
same,activity change,[2],-35.5%
O=C(Nc1ccc(Cl)cc1)N1C[C@@H]2[C@H](c3ccccc31)[C@H](CO)N2C(=O)c1ccccn1,activity change,[1],-91.2%
same,activity change,[2],-53.9%
CCN(CC)CCCN(C(=O)c1ccco1)c1nc(-c2ccc(C)cc2)cs1,activity change,[1],-31.4%
same,activity change,[2],23%
Nc1nc(NCc2ccco2)nc(N2CCN(Cc3ccccc3)CC2)c1[N+](=O)[O-],activity change,[1],-62.5%
same,activity change,[2],-1.87%
CCN(CC)S(=O)(=O)c1cccc(NC(=O)CNc2cccc(S(=O)(=O)N3CCCC3)c2)c1,activity change,[1],-5.45%
same,activity change,[2],-6.07%
COc1ccc(C(=O)Nc2ccc(Nc3ccccc3)cc2)cc1[N+](=O)[O-],activity change,[1],-27%
same,activity change,[2],-31.7%
O=C(Nc1ccccc1F)N1CCCCN2[C@@H](CO)[C@H](c3ccc(C#Cc4cccnc4)cc3)[C@@H]2C1,activity change,[1],-6.31%
same,activity change,[2],9.92%
CCOC(=O)c1c(C)nsc1NCc1ccccc1,activity change,[1],-24.1%
Cc1c(NC(=O)c2ccc([N+](=O)[O-])o2)cccc1-c1nc2ncccc2o1,activity change,[1],-11.2%
same,activity change,[2],-34.3%
O=C(c1ccccc1)c1ccc2nc(-c3ccc(NC(=O)c4ccccc4Br)cc3)[nH]c2c1,activity change,[1],-3.03%
same,activity change,[2],-23.6%
CCOc1ccccc1N1CC(C(=O)Nc2cccc(S(=O)(=O)N3CCCCC3)c2)CC1=O (stereo not given),activity change,[1],-18%
same,activity change,[2],0.695%
CCCC#C/C(CCC)=C1\c2ccccc2C(=O)N1c1ccccc1,activity change,[1],2.23%
same,activity change,[2],44.6%
COc1cccc(NC(=O)c2ccc(NCCCN3CC(C)CC(C)C3)c([N+](=O)[O-])c2)c1 (stereo not given),activity change,[2],-0.387%

# Fetched one by one from above (5):
structure (smiles),measurement,setting,value
Cc1c(NC(=O)c2ccc([N+](=O)[O-])o2)cccc1-c1nc2ncccc2o1,activity change,[2],-34.3%
COc1ccc(C#Cc2ccc([C@@H]3[C@H](CO)N4CCCCN(C(=O)Nc5cccc(F)c5)C[C@@H]34)cc2)cc1,activity change,[1],-1.06%
Cc1cccc(NC(=O)c2n[nH]c([N+](=O)[O-])c2Br)c1C,activity change,[1],-73.3%
O=C(c1ccc(Cl)cc1)N1CCN(c2cccc3[nH]ccc23)CC1,activity change,[2],8.92%
CCOc1ccc(OCC)c(NC(=O)CSc2nc3c(c(=O)n(C)c(=O)n3C)n2C(C)C)c1,activity change,[2],-2.93%

# An excerpt of these results, bar-delimited:
structure (smiles) | measurement | setting | value
CN(c1ccccc1)S(=O)(=O)c1cccc(C(=O)OCC(=O)NCc2ccco2)c1 | activity change | [1] | -37.5%
Cc1ccc(Nc2cc(C(=O)NCCCN3CCOCC3)c3ccccc3n2)cc1C | activity change | [2] | 19.2%
O=C(Nc1ccccc1F)N1CCCCN2[C@@H](CO)[C@H](c3ccc(-c4cccnc4)cc3)[C@@H]2C1 | activity change | [1] | -0.477%
